The values below come from paper PMC12576426.

Construct, isoform or probe ends are uncertain for at least one entry. Where a protein sequence is shown, tags need not be part of it.

Series [1] addresses T1, CaDRHB12 (Capsicum annuum) (UniProt A0A2G2ZAK7).
T1 sequence (looked up, limits assumed): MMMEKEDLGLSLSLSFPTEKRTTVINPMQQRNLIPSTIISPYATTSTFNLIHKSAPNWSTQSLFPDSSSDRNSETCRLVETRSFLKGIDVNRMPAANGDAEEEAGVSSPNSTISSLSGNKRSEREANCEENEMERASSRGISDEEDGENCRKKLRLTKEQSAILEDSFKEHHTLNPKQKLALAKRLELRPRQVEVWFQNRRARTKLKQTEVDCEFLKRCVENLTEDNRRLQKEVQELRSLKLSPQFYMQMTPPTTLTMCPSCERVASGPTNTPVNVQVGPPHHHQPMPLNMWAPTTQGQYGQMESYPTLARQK
The series can be described thus: competition with a labelled probe. As to conditions: unlabeled competitor against biotin-labelled N1; LightShift Chemiluminescent EMSA Kit (Thermo Fisher); pH and temperature not stated; recombinant protein; protein details: MBP.

Series [2] concerns the target T1, CaDRHB12 (Capsicum annuum). As to the kind of experiment: EMSA. The conditions noted are these: LightShift Chemiluminescent EMSA Kit (Thermo Fisher); pH and temperature not stated; recombinant protein; protein details: MBP.

Take “TAAATATAATAATTGATAGTG (double strand) [ATHB6COREAT cold probe (CaRAB18 promoter)]”: the binding result in series [1] is “binds”.

In the case of “TATTTAAATATAATAATTGATAGTGCCAA (double strand) [ATHB6COREAT hot probe (CaRAB18 promoter)]”, in series [2], the binding result is reported as “binds”.
